Assay [1] has as its target T1, His-PTGDR2 (PGD2 receptor 2) (UniProt Q9Y5Y4).
T1 sequence: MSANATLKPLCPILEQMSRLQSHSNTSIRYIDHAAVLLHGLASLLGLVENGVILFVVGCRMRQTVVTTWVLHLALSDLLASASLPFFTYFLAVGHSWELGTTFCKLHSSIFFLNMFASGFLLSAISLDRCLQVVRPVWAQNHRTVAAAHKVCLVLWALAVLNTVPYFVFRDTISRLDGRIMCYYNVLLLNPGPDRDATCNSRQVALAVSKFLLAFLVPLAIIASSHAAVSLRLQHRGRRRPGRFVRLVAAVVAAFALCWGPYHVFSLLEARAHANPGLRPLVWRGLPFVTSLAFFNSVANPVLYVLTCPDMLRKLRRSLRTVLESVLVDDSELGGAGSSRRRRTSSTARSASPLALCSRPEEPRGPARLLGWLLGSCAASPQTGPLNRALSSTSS
Description: co-IP; 293T cells with His-PTGDR2 and Flag-RNF5; immunoprecipitation and reverse immunoprecipitation, immunoblot. For orientation: Immunoblotting shows a protein as a band on a membrane.

Amino acid sequences for entries named in this document (tags omitted).
UniProt Q99942: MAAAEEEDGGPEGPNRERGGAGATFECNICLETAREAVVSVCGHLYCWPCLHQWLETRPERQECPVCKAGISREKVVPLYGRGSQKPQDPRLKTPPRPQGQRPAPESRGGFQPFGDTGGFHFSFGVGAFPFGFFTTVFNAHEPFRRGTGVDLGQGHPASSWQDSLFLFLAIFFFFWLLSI

Assay [2] has as its target Flag-RNF5 (ring finger protein 5, E3 ubiquitin ligase) (UniProt Q99942). The assay is described as above.

These are yes or no findings as the source states them, for the method shown. In cells and extracts the contact can be indirect. Some entries that bind do so weakly or less than the wild type. Sequences can lack the tags named with a protein.

On to “Flag-RNF5 (ring finger protein 5, E3 ubiquitin ligase) (from UniProt Q99942 1-180) (enzyme)”, for which the binding result in assay [1] was “binds”.

B1: His-PTGDR2 (PGD2 receptor 2) (receptor, UniProt Q9Y5Y4 1-395)
chain: T1 sequence
Take B1: the binding entry in assay [2] was “binds”.

The record behind these values is paper PMC11703842.
